Assay results published in publication PMC9671360.
No constants are given. Whether binding was seen depends on the method and setting. Binding seen in cells or lysates may run through a third protein. Some binding calls cover weakened binding; strength is not graded here. Values belong to the substance of their own block, whether it stands above or below them.

By UniProt entry, the sequences of proteins in these tests, tags left out.
UniProt Q00534: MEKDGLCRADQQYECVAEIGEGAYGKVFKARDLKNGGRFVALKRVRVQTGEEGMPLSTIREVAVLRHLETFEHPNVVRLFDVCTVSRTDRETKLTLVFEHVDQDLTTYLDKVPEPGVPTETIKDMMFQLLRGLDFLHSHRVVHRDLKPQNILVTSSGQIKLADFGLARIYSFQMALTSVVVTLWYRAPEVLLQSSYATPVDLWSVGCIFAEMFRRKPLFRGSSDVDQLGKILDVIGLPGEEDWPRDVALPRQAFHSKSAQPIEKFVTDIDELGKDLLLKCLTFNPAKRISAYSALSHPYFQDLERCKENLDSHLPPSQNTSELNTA
UniProt P11802: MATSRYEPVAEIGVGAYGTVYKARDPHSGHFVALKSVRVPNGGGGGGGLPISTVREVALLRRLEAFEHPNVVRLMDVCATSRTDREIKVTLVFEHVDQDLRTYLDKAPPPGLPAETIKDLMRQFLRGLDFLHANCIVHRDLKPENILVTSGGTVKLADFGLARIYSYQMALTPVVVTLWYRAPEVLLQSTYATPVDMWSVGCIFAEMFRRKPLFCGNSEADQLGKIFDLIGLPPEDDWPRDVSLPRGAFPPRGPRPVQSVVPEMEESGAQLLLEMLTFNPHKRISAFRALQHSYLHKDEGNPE
UniProt Q99497: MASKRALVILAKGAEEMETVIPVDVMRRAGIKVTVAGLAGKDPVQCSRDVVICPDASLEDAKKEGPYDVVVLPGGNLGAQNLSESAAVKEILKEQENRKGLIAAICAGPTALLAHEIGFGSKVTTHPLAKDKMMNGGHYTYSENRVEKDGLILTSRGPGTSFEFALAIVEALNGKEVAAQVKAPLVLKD

Columns and labels:
[1] = biological target: CDK6 in pBiFC-VN173, with Flag (UniProt Q00534); test: split reporter; BiFC: DJ-1 and CDK plasmids with GFP tag co-transfected in 293 cells; green fluorescence from complementation
[2] = biological target: CDK4 (cyclin-dependent kinase 4) in pBiFC-VN173, with Flag (UniProt P11802); test: as above
[3] = biological target: Endogenous CDK4 of MG63 and U2OS cells (human (endogenous in MG63 and U2OS)) (UniProt P11802); test: co-IP; endogenous proteins in MG63 and U2OS lysates (RIPA); antibody or IgG at 4°C overnight, magnetic beads 2 h at room temperature, Western blot
[4] = biological target: CDK4 (cyclin-dependent kinase 4) in pBiFC-VN173, with Flag (UniProt P11802); test: co-IP; CDK plasmids (CDK1-8) with Flag tag transfected in 293 cells; DJ-1 detected in the precipitate

binding [1]: no binding
binding [2]: binds
Substance: DJ-1 (PARK7), BiFC construct with GFP tag (from UniProt Q99497 1-189)

binding [3]: binds
Substance: Endogenous DJ-1 of MG63 and U2OS cells (from UniProt Q99497 1-189)

binding [4]: binds
Substance: DJ-1 found with Flag-tagged CDK4 in 293 cells (from UniProt Q99497 1-189)
